Results taken from patent publication US20220127365A1.

Tests used:
[1] = target: cynomolgus CD94 (cynomolgus monkey); test: flow cytometry on HEK293 cells overexpressing cynomolgus CD94
[2] = target: cynomolgus CD94 (cynomolgus monkey); test: flow cytometry on HEK293 cells expressing cynomolgus CD94 (FIG. 31B)
[3] = target: cynomolgus CD94 (cynomolgus monkey); test: flow cytometry on HEK293 cells overexpressing cynomolgus CD94; column 'Cyno CD94 cross-reactivity'
[4] = target: cynomolgus CD94 (cynomolgus monkey); test: flow cytometry on HEK293 cells overexpressing cynomolgus CD94; unconjugated antibody in a dilution series, Alexa Fluor 647 anti-human secondary antibody
[5] = target: cynomolgus CD94 (cynomolgus monkey); test: flow cytometry on cynomolgus CD94-expressing HEK293 cells
[6] = target: cynomolgus CD94 (cynomolgus monkey); test: flow cytometry on cynomolgus CD94-expressing HEK293 cells (FIG. 3A, 3B)
[7] = target: cynomolgus CD94 (cynomolgus monkey); test: flow cytometry, ATX-130-KIF Alexa Fluor 647 at 50 nM on cynomolgus PBMCs
[8] = target: cynomolgus CD94 (cynomolgus monkey); test: flow cytometry, ATX-130-KIF Alexa Fluor 647 at 50 nM on cynomolgus PBMCs (FIG. 18)

B1: anti-CD94 antibody ATX-130 (antibody, human IgG1, V domains shown)
VH: EVQLLESGGGLVKPGGSLRLSCAASGFTFSSYSMNWVRQAPGKGLEWVSSISTSSNFIYYADSVKGRFTISRDNAKNSLYLQMNSLRAEDTAVYYCARDLGRYYYYMDVWGKGTTVTVSS
VL: DIVMTQSPSSLSASVGDRVTITCRASQSISSWLAWYQQKPGKAPKSLIYAASSLQSGVPSKFSGSGSGTDFTLTISSLQPEDVATYYCQKYNSAPFTFGPGTKVDIK
In the case of B1, the binding [1] is reported as “binds”, the binding [2] is reported as “binds” and the binding [3] is reported as “binds”. For the same binder, the binding [4] was “binds”.

B2: anti-CD94 antibody ATX-126 (antibody, human IgG1, V domains shown)
VH: QVQLQESGGGLVQPGGSLKLSCAASGFTFSSYSMNWVRQAPGKGLEWVSSISTSSNFIYYADSVKGRFTISRDNSKNTLYLQMNSLRAEDTAVYYCVRDMGPFYSFYYMDVWGNGTTVTVSS
VL: DIQVTQSPATLSLSPGERATLSCRASQSVSSSYLAWYQQKPGQAPRLLIYGASNRATGIPARFSGSGSGTDFTLTISSLQPEDFATYYCLQHNSYPPTFGGGTKVDIK
B2 was tested, and the binding [1] was “binds”, the binding [2] was “binds” and the binding [3] was “binds”. The binding [4] was “binds”.

B3: anti-CD94 antibody ATX-125 (antibody, human IgG1, V domains shown)
VH: QVQLQQSGPGLVKPSETLSLTCTVSGGSISSIIYYWGWIRQPPGKGLEWIGSIYYSGSTYYNPSLKSRVTISVDTSKNQFSLNLSSVTAADTAVYYCARLPLTGEFAFDIWGQGTMVTVSS
VL: EIVLTQSPATLSLSPGERATLSCRASQSVSTYLAWFQQKPGQAPRLLIYGASSRATGIPDRFSGSGSGTDFTLTISRLEPEDFAVYYCQQYGSSPITFGQGTRLEIK
With B3 the binding [1] was “binds”, the binding [2] was “binds” and the binding [3] was “binds”. For the same binder, the binding [4] was “binds”.

B4: anti-CD94 antibody ATX-129 (antibody, human IgG1, V domains shown)
VH: EVQLVQSGGGLVQPGGSLRLSCAASGFTFSSYWMSWVRQAPGKGLEWVANIKQDGSAKYYVDSVKGRFTISRDNAKNSLYLQMNSLRAEDTAVYYCARGYYFDYWGQGTLVTVSS
VL: EIVLTQSPSTLSASVGDRVTITCRVSQGISSYLNWYRQKPGKVPKLLIYAASSLQSGVPSRFSGSGSGTDFTLTISSLQPEDFATYYCQQSYSTPITFGQGTRLEIK
In the case of B4, the binding [1] is reported as “binds”, the binding [2] is reported as “binds” and the binding [3] is reported as “binds”. The binding [4] was “binds”.

B5: anti-CD94 antibody ATX-127 (antibody, human IgG1, V domains shown)
VH: QVQLQQSGPGLVKPSGTLSLTCAVSGGSISSRYWWTWVRQPPGKGLEWIGEIYHSGTTNYNPSLESRVTISVDKSKNQFSLKVSSVTAADTAVYYCARSPNWGYYYYYMDVWGKGTTVTVSS
VL: EIVMTQSPATLSVSPGERATLSCRASQSVSSSYLAWYQQKPGQAPRLLIYGASSRATGIPDRFSGSGSGTDFTLTISRLESEDFAVYYCQQYGRSLTFGGGTKVEIK
In the case of B5, the binding [1] is reported as “binds”, the binding [2] is reported as “binds” and the binding [3] is reported as “binds”. For the same binder, the binding [4] was “binds”.

B6: anti-CD94 antibody 18H3 (antibody, V domains shown)
VH: EVQLVQSGAEVKKPGESLKISCKGSGYRFTSYWIGWVRQMPGKGLEWMGIIYPGDSDTRYSPSFQGQVIISADKSITTAFLQWSSLKASDTAMYYCARPFDYGGSPGYFDYWGQGTLVTVSS
VL: DIQMTQSPSTLSASVGDRVTITCRASQSIRSWLAWYQQKPGKAPKLLIYKASSLESGVPSRFSGSGSGTEFTLTISSLQPDDFATYYCQQYNTFWTFGQGTKVEIK
For B6, the binding [5] was “binds” and the binding [6] was “binds”.

B7: ATX-130-KIF (antibody, human IgG1, V domains shown)
VH: B1 VH
VL: B1 VL
For B7, the binding [7] was “binds” and the binding [8] was “binds”.

B8: anti-CD94 antibody ATX-123 (antibody, human IgG1, V domains shown)
VH: QVQLVQSGAEVKKPGASVKVSCKASGYTFTSYGISWVRQAPGQGLEWMGWISAYNGNTNYAQKFQGRVTMTTDTSTNTAYMELRSLRSDDTAVYYCARDRGRFGELLSDYWGQGTLVTVSS
VL: DIVMTQSPSSVSASVGDRVTITCRASQGISNYLAWYQQKPGKAPKLLIYAASSLQSGVPSRFSGSGSGTDFTLTISSLQPEDFATYYCLQHNSYPFTFGPGTKVDIK
For B8, the binding [1] was “binds”, the binding [2] was “binds” and the binding [3] was “binds”.

B9: anti-CD94 antibody ATX-122 (antibody, V domains shown)
VH: QVQLVQSGAEVKKPGASLKVSCKASGYTFTSYGVSWVRQAPGQGLEWVGWISPYNGNTNYAHNLQGRVAMTTDTSTSTAYMELRSLRSDDMAVYYCARDRGRFGELFFDYWGQGTLVTVSS
VL: B8 VL
B9 was tested, and the binding [3] was “no binding (tested: 100 nM highest concentration tested)”.

B10: anti-CD94 antibody ATX-124 (antibody, human IgG1, V domains shown)
VH: B8 VH with F64L, N77S, L83V, L107F, S108F, Y110H
VL: B8 VL
B10 was tested, and the binding [3] was “no binding (tested: 100 nM highest concentration tested)”.

Substitutions are numbered along the chain they refer to. No constants are given. Whether binding was seen depends on the method and setting. Binding calls can cover weak binding; strength is not graded here.
